# Assay results from patent US11793880B2 (Seagen Inc., priority 2015, dated 2023).
# Assay: general procedure: solution-phase peptide synthesis; HATU/DIPEA
# Settings: late stage modification step
row,Substance,step yield
1,"(2R)-1-(3-((S)-44-((S)-3-amino-2-(2,5-dioxo-2,5-dihydro-1H-pyrrol-1-yl)propanamido)-38,45-dioxo-2,5,8,11,14,17,20,23,26,29,32,35-dodecaoxa-39,46-diazanonatetracontanamido)-4-(((2S,3R,4S,5S,6S)-6-carboxy-3,4,5-trihydroxytetrahydro-2H-pyran-2-yl)oxy)benzyl)-2-(((2S,3S)-1-(((1R,3R)-1 (4-(((2R,4S)-4-carboxy-1-phenylpentan-2-yl)carbamoyl)thiazol-2-yl)-4-methyl-1-propoxypentan-3-yl)(methyl)amino)-3-methyl-1-oxopentan-2-yl)carbamoyl)-1-methylpiperidin-1-ium",92%
2,"(2R)-1-(3-((S)-44-((S)-3-amino-2-(2,5-dioxo-2,5-dihydro-1H-pyrrol-1-yl)propanamido)-38,45-dioxo-2,5,8,11,14,17,20,23,26,29,32,35-dodecaoxa-39,46-diazanonatetracontanamido)-4-(((2S,3R,4S,5S,6S)-6-carboxy-3,4,5-trihydroxytetrahydro-2H-pyran-2-yl)oxy)benzyl)-2-(((2S,3S)-1-(((1R,3R)-1-(4-(((2R,4S)-4-carboxy-1-phenylpentan-2-yl)carbamoyl)thiazol-2-yl)-1-ethoxy-4-methylpentan-3-yl)(methyl)amino)-3-methyl-1-oxopentan-2-yl)carbamoyl)-1-methylpiperidin-1-ium",83%
3,"(2R)-2-(((2S,3S)-1-(((1R,3R)-1-acetoxy-1-(4-(((2R,4S)-4-carboxy-1-phenylpentan-2-yl)carbamoyl)thiazol-2-yl)-4-methylpentan-3-yl)(methyl)amino)-3-methyl-1-oxopentan-2-yl)carbamoyl)-1-(4-((44S,47S,50S)-44-((S)-3-amino-2-(2,5-dioxo-2,5-dihydro-1H-pyrrol-1-yl)propanamido)-50-(2-carboxyethyl)-47-isopropyl-38,45,48-trioxo-2,5,8,11,14,17,20,23,26,29,32,35-dodecaoxa-39,46,49-triazahenpentacontanamido)benzyl)-1-methylpiperidin-1-ium",70%
4,"(2R)-2-(((2S,3S)-1-(((1R,3R)-1-acetoxy-1-(4-(((2R,4S)-4-carboxy-1-phenylpentan-2-yl)carbamoyl)thiazol-2-yl)-4-methylpentan-3-yl)(methyl)amino)-3-methyl-1-oxopentan-2-yl)carbamoyl)-1-(4-((S)-2-((S)-2-((S)-3-amino-24 (2,5-dioxo-2,5-dihydro-1H-pyrrol-1-yl)propanamido)-3-methylbutanamido)-4-carboxybutanamido)benzyl)-1-methylpiperidin-1-ium",93%
